# Test results taken from patent US20210079087A1 (REMD BIOTHERAPEUTICS, published 2021).
# Sequences of proteins named here, by UniProt entry; tags and fusion partners are left off. A change or cut given only in a name is not applied to a line headed by its entry.
# UniProt Q16552: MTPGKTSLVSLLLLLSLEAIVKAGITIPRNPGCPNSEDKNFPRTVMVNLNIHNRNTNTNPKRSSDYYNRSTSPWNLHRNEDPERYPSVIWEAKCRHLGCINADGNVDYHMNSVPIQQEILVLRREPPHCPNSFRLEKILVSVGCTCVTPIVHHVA
# These are yes or no findings as the source states them, for the method shown. Some entries that bind do so weakly or less than the wild type.
# B1: 22E2G4 (antibody, mouse IgG1, V domains shown)
# VH: QVQLQQPGAELVMPGTSVRLSCKASGYTFTSYWMHWVKQRPGQGLEWIGEIDPSDTYTNYNPKFKGKATLTVDKSSSTAYMQFTSLTSEDSAVYYCARSGIYYDYYEDYWGQGTTLTVSS
# VL: DVVMTQTPLSLPVSLGDQASISCRSSQILLHSNGNTYLHWYLQKPGQSPKLLIYKVSNRFSGVPDRFSGSGSGTDFTLKISRVEAEDLGVYFCSQSVHVPTFGGGTKLEIK
# notes: amino acids 1-19 are stated as the leader; also called A3
# B2: 26G11B11 (antibody, mouse IgG1, V domains shown)
# VH: QVQLQQPGAELVMPGASVKLSCKAAGYTFTSYWMHWVKQRPGQGLEWIGEIDPSDSYTNYNQKFKGKATLTVDKSSSTAYMQLSSLTSEDSAVYYCARSGIYYDYYEDYWGQGTTLTVSS
# VL: DVVMTQTPLSLPVSLGDQASISCRSSQSLVHSNGNTYLHWYLQKPGQSPKLLIYKVSNRFSGVPDRFSGSGSGTDFTLKISRVEAEDLGVYFCSQSIHVPTFGGGTKLEIK
# notes: amino acids 1-19 are stated as the leader; also called A6
# B3: 24F11E4 (antibody, mouse IgG1, V domains shown)
# VH: QVQLQQPGAELVMPGASVRLSCKASGYTFTNYWIHWVKQRPGQGLEWIGEIDPSDTFTNYSPKFKGKATLTVDKSSSTAYMQLTGLTSEDSAVYFCARSGIYYDYYEDYWGQGTTLTVSS
# VL: DVVMTQTPLSLPVSLGDQVSISCRSSQILLHSNGNTYLHWYLQKPGQSPKLLIYKVSNRFSGVPDRFSGSGSGTDFTLKISRVEADDLGVYFCSQSVHVPTFGGGTKLEIK
# notes: amino acids 1-19 are stated as the leader; also called A5
# B4: 23A4D8 (antibody, mouse IgG2a, V domains shown)
# VH: EVQLQQSGPELVKPGASVKISCKASGFTFTDYYMNWMKQSHGKSLEWIGDINPKNGGTIFNQNFRGKATLTVDKSSSTAYMELRSLTSEDSAVYYCARSILTGPFYFDYWGQGTTLTVSS
# VL: DIVLTQSPASLAVSLGQRAIISCKASQSVSFAGTGLMHWYQQKSGQQPKLLISRASNLEAGVPTRFSGSGSRTDFTLNIHPVEEDDAATYYCQQTMEYPTFGGGTKLEIK
# notes: also called Murine 23A4D8; parental
# B5: 4H11C7 (antibody, mouse IgG1, V domains shown)
# VH: QVTLKESGPGILQPSQTLSLTCSFSGFSLNTFGMGVDWIRQPSGKGLEWLAHIWWDDDKYYNPALESRLTISKDASKNQVFLKIANVDTADTATYYCSRRELGPYFFDYWGQGTTLTVSS
# VL: GVLMTQTPLSLPVSLGDQASISCRSSQSIVHSNGNTYLEWYLQKPGQSPKLLIYKVSNRFSGVPDRFSGSGSGTDFTLKINRVEAEDLGVYYCFQGSHFPYTFGGGTKLEID
# notes: amino acids 1-19 are stated as the leader; also called A1
# What was measured:
# [1] = target: cyno primate IL-17A (cyno primate); assay: ELISA on coated cyno IL-17A ('cy IL17A 122116 (naked IL17A 1 ug/ml)'), OD450
# [2] = target: cyno primate IL-17A (cyno primate); assay: ELISA
# human IL-17A [3] = target: T1, human IL-17A (human, UniProt Q16552 24-155); assay: ELISA, binding to human IL-17A (upper panel 'IL17A EC50', normalised IL17 Binding)
# human IL-17A [4] = target: T1, human IL-17A; assay: blocking ELISA, IL-17A/IL-17R (lower panel 'IL17A/IL17R IC50', normalised IL17A Binding); blocked partner: IL-17R
# human IL-17A [5] = target: T1, human IL-17A; assay: ELISA
binder,measurement,setting,value
B1,binding,[1],binds
same,binding,[2],binds
B2,binding,[1],binds
same,binding,[2],binds
B3,binding,[1],binds
same,binding,[2],binds
B4,binding,[1],binds
same,binding,human IL-17A [3],binds
same,binding,human IL-17A [4],binds
same,binding,[2],binds
same,binding,human IL-17A [5],binds
B5,binding,[1],binds
same,binding,[2],binds
